Measurements reported in PubChem BioAssay AID1259405 (NCATS, 2018).
In all, the deposit lists about 50,000 reagents; below is a part drawn at random. Over the whole deposit, about 4,000 (8%) are marked active. 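Mouse siRNA library applied to hamster cells; one well for each siRNA.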 Unmarked entries are inactive. Reagents against one gene are numbered here. Further read-outs or replicates are left out here. Reagent sequences are not shown.

- Assay: 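Silenced genes that increase secreted GFP made by CHO cells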 (primary screen)
- Cells: Chinese hamster CHO-K1 ovary cells with stable secreted eGFP expression
- Reagent: single siRNA against mouse genes, 0.8 pmol siRNA per well (2 µl of 400 nM stock)
- Timing: 3 days
- Detection: 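Per-well intracellular GFP measured by laser scanning cytometry, plus viability from ATP luminescence, each relative to plate median of non-targeting control wells, in %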
- Direction: GFP, % of control: higher = more GFP per well, higher productivity
- Call rule: 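a knock-down is called active if GFP reaches 120% or more of non-targeting control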

GFP, % of control, by gene and reagent
Rnf115 (ring finger protein 115): #1 52.2; #2 69.2; #3 72.1
Itgbl1 (integrin, beta-like 1): #1 40.2; #2 104; #3 75.3
Oxld1 (oxidoreductase like domain containing 1): #1 91.9; #2 115; #3 48.2
Celf1 (CUGBP, Elav-like family member 1): #1 136 (active); #2 43.3; #3 61.6
Zfp811 (zinc finger protein 811): #1 68.2; #2 27.3; #3 84.9

4 consecutive entries from above:
GFP, % of control, by gene and reagent
Itgbl1 (integrin, beta-like 1): #2 104; #3 75.3
Oxld1 (oxidoreductase like domain containing 1): #1 91.9; #2 115

The listing continues:
GFP, % of control, by gene and reagent
Nsg2 (neuron specific gene family member 2): #1 38.1; #2 74.3; #3 61.4
Fosl1 (fos-like antigen 1): #1 83.5; #2 91.6
Laptm5 (lysosomal-associated protein transmembrane 5): #1 92.7; #2 111; #3 102
Atxn7l1 (ataxin 7-like 1): #1 71.5; #2 38.4; #3 71.3; #4 67.6; #5 82.7; #6 72.1
Pxdc1 (PX domain containing 1): #1 107; #2 68.3; #3 56.3
Zfp459 (zinc finger protein 459): #1 54.2; #2 64; #3 66.1
